Where two headings read alike, the source gives them in different places. Results are given in words; binding and its absence hold for the method and conditions named. For some assays here: In cells and extracts the contact can be indirect. Some results given as binding are weak or reduced against the parent protein; the word gives no strength. For some assays here: Where a sequence is shown, tags or fusion partners need not be part of it.

Sequences of proteins named here, by UniProt entry; tags and fusion partners are left off. Residues count along the entry.
UniProt O82647: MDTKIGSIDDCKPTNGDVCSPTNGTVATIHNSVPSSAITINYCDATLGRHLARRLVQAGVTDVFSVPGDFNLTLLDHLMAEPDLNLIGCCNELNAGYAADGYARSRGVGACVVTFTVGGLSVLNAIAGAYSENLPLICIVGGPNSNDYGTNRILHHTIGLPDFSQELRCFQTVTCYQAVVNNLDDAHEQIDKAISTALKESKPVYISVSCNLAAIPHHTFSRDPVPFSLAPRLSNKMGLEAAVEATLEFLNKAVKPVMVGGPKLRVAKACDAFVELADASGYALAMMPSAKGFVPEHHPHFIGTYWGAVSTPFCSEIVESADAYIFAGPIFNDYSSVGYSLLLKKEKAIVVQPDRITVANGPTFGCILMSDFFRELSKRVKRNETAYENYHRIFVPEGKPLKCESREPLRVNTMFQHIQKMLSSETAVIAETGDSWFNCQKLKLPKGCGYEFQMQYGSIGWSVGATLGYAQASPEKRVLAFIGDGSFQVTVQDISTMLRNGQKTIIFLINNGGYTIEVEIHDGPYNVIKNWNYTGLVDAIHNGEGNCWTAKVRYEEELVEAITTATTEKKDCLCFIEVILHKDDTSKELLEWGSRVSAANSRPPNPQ
UniProt P38113: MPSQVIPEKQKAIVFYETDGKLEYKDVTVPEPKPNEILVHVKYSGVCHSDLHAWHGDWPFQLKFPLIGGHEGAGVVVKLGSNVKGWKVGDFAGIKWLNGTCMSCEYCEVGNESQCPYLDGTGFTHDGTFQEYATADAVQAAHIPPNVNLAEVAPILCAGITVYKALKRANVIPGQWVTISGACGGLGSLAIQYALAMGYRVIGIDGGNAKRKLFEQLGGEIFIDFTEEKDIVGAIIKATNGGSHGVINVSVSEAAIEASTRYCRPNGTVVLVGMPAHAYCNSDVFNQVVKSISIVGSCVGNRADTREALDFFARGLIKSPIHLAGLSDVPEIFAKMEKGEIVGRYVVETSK
UniProt P07246, residues 25-375: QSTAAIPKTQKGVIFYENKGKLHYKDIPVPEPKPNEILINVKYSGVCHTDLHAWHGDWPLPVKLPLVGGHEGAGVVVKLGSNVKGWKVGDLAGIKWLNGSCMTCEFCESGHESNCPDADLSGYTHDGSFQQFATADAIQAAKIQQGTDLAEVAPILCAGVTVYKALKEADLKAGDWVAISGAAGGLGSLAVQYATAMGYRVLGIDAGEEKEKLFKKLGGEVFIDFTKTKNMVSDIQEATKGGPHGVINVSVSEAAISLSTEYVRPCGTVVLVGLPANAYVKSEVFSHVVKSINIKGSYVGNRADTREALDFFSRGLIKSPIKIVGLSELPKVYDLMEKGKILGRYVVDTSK

Experiment [1] concerns the target T1, TBSV p33-Flag replication protein (expressed in N. benthamiana) (tomato bushy stunt virus (TBSV)) (UniProt P15962).
T1 sequence: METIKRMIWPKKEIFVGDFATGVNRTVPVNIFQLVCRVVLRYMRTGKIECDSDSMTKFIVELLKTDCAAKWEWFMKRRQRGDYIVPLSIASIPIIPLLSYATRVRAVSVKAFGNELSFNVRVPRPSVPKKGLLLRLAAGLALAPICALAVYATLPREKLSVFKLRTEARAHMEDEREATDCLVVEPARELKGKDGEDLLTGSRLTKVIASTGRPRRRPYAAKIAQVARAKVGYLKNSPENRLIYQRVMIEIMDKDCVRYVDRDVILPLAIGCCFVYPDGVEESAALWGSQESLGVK
Put plainly: co-IP; co-purification from agroinfiltrated N. benthamiana leaves (2.5 days); PPEB buffer with 0.5% Triton X-100, 150 mM NaCl, pH 7.5; anti-FLAG M2 affinity agarose, 2 h at 4 C; detection with anti-HA antibody.

For experiment [2], the target named is T2, TBSV p33-cYFP (tomato bushy stunt virus (TBSV)) (UniProt P15962).
T2 sequence: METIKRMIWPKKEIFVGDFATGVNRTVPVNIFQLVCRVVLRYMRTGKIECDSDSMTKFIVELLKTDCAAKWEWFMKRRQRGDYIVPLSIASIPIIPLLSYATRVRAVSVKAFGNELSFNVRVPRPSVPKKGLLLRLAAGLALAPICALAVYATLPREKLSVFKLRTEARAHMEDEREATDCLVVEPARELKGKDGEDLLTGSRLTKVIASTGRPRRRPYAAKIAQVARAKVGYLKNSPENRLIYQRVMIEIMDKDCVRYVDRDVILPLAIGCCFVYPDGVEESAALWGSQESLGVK
Put plainly: split reporter; BiFC in N. benthamiana leaves; cYFP-tagged replication proteins and nYFP-tagged host proteins expressed via agroinfiltration; confocal microscopy with peroxisomal or mitochondrial markers.

The target in experiment [3] is T3, TBSV p33 replication protein (MYTH bait) (tomato bushy stunt virus (TBSV)) (UniProt P15962).
T3 sequence: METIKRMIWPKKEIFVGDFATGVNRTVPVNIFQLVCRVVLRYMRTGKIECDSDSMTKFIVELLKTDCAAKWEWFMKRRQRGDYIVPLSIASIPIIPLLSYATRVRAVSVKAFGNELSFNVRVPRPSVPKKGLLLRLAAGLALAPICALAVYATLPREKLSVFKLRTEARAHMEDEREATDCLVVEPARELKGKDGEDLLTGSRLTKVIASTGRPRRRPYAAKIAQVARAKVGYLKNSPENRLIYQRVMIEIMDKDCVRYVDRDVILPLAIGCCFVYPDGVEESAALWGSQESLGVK
Nature of the experiment: two-hybrid; split ubiquitin-based membrane yeast two-hybrid (MYTH); bait p33 co-expressed with the prey proteins in yeast; empty prey vector (NubG) as negative control.

Experiment [4] deals with T4, TBSV Flag-p33 replication protein (tomato bushy stunt virus (TBSV)) (UniProt P15962).
T4 sequence: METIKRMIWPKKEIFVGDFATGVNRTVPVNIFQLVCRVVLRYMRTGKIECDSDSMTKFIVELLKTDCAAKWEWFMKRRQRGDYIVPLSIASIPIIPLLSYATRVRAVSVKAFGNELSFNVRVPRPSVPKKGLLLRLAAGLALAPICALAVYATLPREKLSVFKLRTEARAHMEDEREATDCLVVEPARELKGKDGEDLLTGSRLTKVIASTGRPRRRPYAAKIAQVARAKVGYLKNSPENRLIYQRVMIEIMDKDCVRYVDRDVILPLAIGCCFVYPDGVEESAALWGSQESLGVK
Put plainly: co-IP; Flag-affinity purification of the Flag-tagged replication proteins from the detergent-solubilized membrane fraction of yeast; samples cross-linked with formaldehyde in intact yeast cells; co-purified His6-tagged proteins detected with anti-His antibody; in Fig 2I samples taken 0, 1 h and 2.5 h after cycloheximide (100 ug/ml).

Experiment [5] has as its target T4, TBSV Flag-p33 replication protein (tomato bushy stunt virus (TBSV)). Described as above. The source holds these as a separate data set.

“HA-AtPdc1 (expressed in N. benthamiana) (from UniProt O82647 1-607) (enzyme)”: the binding result in experiment [1] is recorded as “binds”.
With “nYFP-AtPdc1 (from UniProt O82647 1-607) (enzyme)”, in experiment [2], the binding entry is recorded as “binds”.
In the case of “yeast Adh5p alcohol dehydrogenase (MYTH prey) (from UniProt P38113 1-351) (enzyme)”, the binding result in experiment [3] is reported as “binds”.
As to “Arabidopsis AtPdc1 (MYTH prey) (from UniProt O82647 1-607) (enzyme)”, in experiment [3], the binding result is recorded as “binds”.
“yeast His6-Adh3p (from UniProt P07246 25-375) (enzyme)”: in experiment [4], the binding result was “binds”.
For “yeast Adh3p alcohol dehydrogenase (MYTH prey) (from UniProt P07246 25-375) (enzyme)”, the binding result in experiment [3] is given as “binds”.
“yeast His6-Pdc1^S455F mutant (from UniProt P06169 1-563) (enzyme)”: in experiment [4], the binding result is reported as “binds”.
As for “Arabidopsis His6-AtPdc1 (expressed in yeast) (from UniProt O82647 1-607) (enzyme)”, the binding result in experiment [4] was “binds”.

B1: yeast Adh4p alcohol dehydrogenase (MYTH prey) (enzyme, UniProt P10127 1-382)
chain: MSSVTGFYIPPISFFGEGALEETADYIKNKDYKKALIVTDPGIAAIGLSGRVQKMLEERDLNVAIYDKTQPNPNIANVTAGLKVLKEQNSEIVVSIGGGSAHDNAKAIALLATNGGEIGDYEGVNQSKKAALPLFAINTTAGTASEMTRFTIISNEEKKIKMAIIDNNVTPAVAVNDPSTMFGLPPALTAATGLDALTHCIEAYVSTASNPITDACALKGIDLINESLVAAYKDGKDKKARTDMCYAEYLAGMAFNNASLGYVHALAHQLGGFYHLPHGVCNAVLLPHVQEANMQCPKAKKRLGEIALHFGASQEDPEETIKALHVLNRTMNIPRNLKELGVKTEDFEILAEHAMHDACHLTNPVQFTKEQVVAIIKKAYEY
For B1, the binding entry in experiment [3] is listed as “binds”.

B2: His6-AtAdh1 (expressed in yeast) (enzyme, UniProt P06525 1-379)
chain: MSTTGQIIRCKAAVAWEAGKPLVIEEVEVAPPQKHEVRIKILFTSLCHTDVYFWEAKGQTPLFPRIFGHEAGGIVESVGEGVTDLQPGDHVLPIFTGECGECRHCHSEESNMCDLLRINTERGGMIHDGESRFSINGKPIYHFLGTSTFSEYTVVHSGQVAKINPDAPLDKVCIVSCGLSTGLGATLNVAKPKKGQSVAIFGLGAVGLGAAEGARIAGASRIIGVDFNSKRFDQAKEFGVTECVNPKDHDKPIQQVIAEMTDGGVDRSVECTGSVQAMIQAFECVHDGWGVAVLVGVPSKDDAFKTHPMNFLNERTLKGTFFGNYKPKTDIPGVVEKYMNKELELEKFITHTVPFSEINKAFDYMLKGESIRCIITMGA
Consider B2, for which the binding entry in experiment [5] was “binds”.

B3: Arabidopsis AtAdh1 (MYTH prey) (enzyme, UniProt P06525 1-379)
chain: MSTTGQIIRCKAAVAWEAGKPLVIEEVEVAPPQKHEVRIKILFTSLCHTDVYFWEAKGQTPLFPRIFGHEAGGIVESVGEGVTDLQPGDHVLPIFTGECGECRHCHSEESNMCDLLRINTERGGMIHDGESRFSINGKPIYHFLGTSTFSEYTVVHSGQVAKINPDAPLDKVCIVSCGLSTGLGATLNVAKPKKGQSVAIFGLGAVGLGAAEGARIAGASRIIGVDFNSKRFDQAKEFGVTECVNPKDHDKPIQQVIAEMTDGGVDRSVECTGSVQAMIQAFECVHDGWGVAVLVGVPSKDDAFKTHPMNFLNERTLKGTFFGNYKPKTDIPGVVEKYMNKELELEKFITHTVPFSEINKAFDYMLKGESIRCIITMGA
Turning to B3, the binding result in experiment [3] is given as “binds”.

B4: yeast Pdc1p pyruvate decarboxylase (MYTH prey) (enzyme, UniProt P06169 1-563)
chain: MSEITLGKYLFERLKQVNVNTVFGLPGDFNLSLLDKIYEVEGMRWAGNANELNAAYAADGYARIKGMSCIITTFGVGELSALNGIAGSYAEHVGVLHVVGVPSISAQAKQLLLHHTLGNGDFTVFHRMSANISETTAMITDIATAPAEIDRCIRTTYVTQRPVYLGLPANLVDLNVPAKLLQTPIDMSLKPNDAESEKEVIDTILALVKDAKNPVILADACCSRHDVKAETKKLIDLTQFPAFVTPMGKGSIDEQHPRYGGVYVGTLSKPEVKEAVESADLILSVGALLSDFNTGSFSYSYKTKNIVEFHSDHMKIRNATFPGVQMKFVLQKLLTTIADAAKGYKPVAVPARTPANAAVPASTPLKQEWMWNQLGNFLQEGDVVIAETGTSAFGINQTTFPNNTYGISQVLWGSIGFTTGATLGAAFAAEEIDPKKRVILFIGDGSLQLTVQEISTMIRWGLKPYLFVLNNDGYTIEKLIHGPKAQYNEIQGWDHLSLLPTFGAKDYETHRVATTGEWDKLTQDKSFNDNSKIRMIEIMLPVFDAPQNLVEQAKLTAATNAKQ
For B4, the binding result in experiment [3] is “binds”.

B5: yeast His6-Pdc1p (enzyme, UniProt P06169 1-563)
chain: MSEITLGKYLFERLKQVNVNTVFGLPGDFNLSLLDKIYEVEGMRWAGNANELNAAYAADGYARIKGMSCIITTFGVGELSALNGIAGSYAEHVGVLHVVGVPSISAQAKQLLLHHTLGNGDFTVFHRMSANISETTAMITDIATAPAEIDRCIRTTYVTQRPVYLGLPANLVDLNVPAKLLQTPIDMSLKPNDAESEKEVIDTILALVKDAKNPVILADACCSRHDVKAETKKLIDLTQFPAFVTPMGKGSIDEQHPRYGGVYVGTLSKPEVKEAVESADLILSVGALLSDFNTGSFSYSYKTKNIVEFHSDHMKIRNATFPGVQMKFVLQKLLTTIADAAKGYKPVAVPARTPANAAVPASTPLKQEWMWNQLGNFLQEGDVVIAETGTSAFGINQTTFPNNTYGISQVLWGSIGFTTGATLGAAFAAEEIDPKKRVILFIGDGSLQLTVQEISTMIRWGLKPYLFVLNNDGYTIEKLIHGPKAQYNEIQGWDHLSLLPTFGAKDYETHRVATTGEWDKLTQDKSFNDNSKIRMIEIMLPVFDAPQNLVEQAKLTAATNAKQ
With B5, the binding result in experiment [5] is “binds”.

B6: yeast His6-Adh2p (enzyme, UniProt P00331 1-348)
chain: MSIPETQKAIIFYESNGKLEHKDIPVPKPKPNELLINVKYSGVCHTDLHAWHGDWPLPTKLPLVGGHEGAGVVVGMGENVKGWKIGDYAGIKWLNGSCMACEYCELGNESNCPHADLSGYTHDGSFQEYATADAVQAAHIPQGTDLAEVAPILCAGITVYKALKSANLRAGHWAAISGAAGGLGSLAVQYAKAMGYRVLGIDGGPGKEELFTSLGGEVFIDFTKEKDIVSAVVKATNGGAHGIINVSVSEAAIEASTRYCRANGTVVLVGLPAGAKCSSDVFNHVVKSISIVGSYVGNRADTREALDFFARGLVKSPIKVVGLSSLPEIYEKMEKGQIAGRYVVDTSK
As for B6, the binding result in experiment [5] is “binds”.

B7: yeast Adh2p alcohol dehydrogenase (MYTH prey) (enzyme, UniProt P00331 1-348)
chain: MSIPETQKAIIFYESNGKLEHKDIPVPKPKPNELLINVKYSGVCHTDLHAWHGDWPLPTKLPLVGGHEGAGVVVGMGENVKGWKIGDYAGIKWLNGSCMACEYCELGNESNCPHADLSGYTHDGSFQEYATADAVQAAHIPQGTDLAEVAPILCAGITVYKALKSANLRAGHWAAISGAAGGLGSLAVQYAKAMGYRVLGIDGGPGKEELFTSLGGEVFIDFTKEKDIVSAVVKATNGGAHGIINVSVSEAAIEASTRYCRANGTVVLVGLPAGAKCSSDVFNHVVKSISIVGSYVGNRADTREALDFFARGLVKSPIKVVGLSSLPEIYEKMEKGQIAGRYVVDTSK
On to B7, for which, in experiment [3], the binding entry is reported as “binds”.

B8: yeast His6-Adh1p (enzyme, UniProt P00330 1-348)
chain: MSIPETQKGVIFYESHGKLEYKDIPVPKPKANELLINVKYSGVCHTDLHAWHGDWPLPVKLPLVGGHEGAGVVVGMGENVKGWKIGDYAGIKWLNGSCMACEYCELGNESNCPHADLSGYTHDGSFQQYATADAVQAAHIPQGTDLAQVAPILCAGITVYKALKSANLMAGHWVAISGAAGGLGSLAVQYAKAMGYRVLGIDGGEGKEELFRSIGGEVFIDFTKEKDIVGAVLKATDGGAHGVINVSVSEAAIEASTRYVRANGTTVLVGMPAGAKCCSDVFNQVVKSISIVGSYVGNRADTREALDFFARGLVKSPIKVVGLSTLPEIYEKMEKGQIVGRYVVDTSK
B8: the binding entry in experiment [5] is on record as “binds”.

B9: yeast Adh1p alcohol dehydrogenase (MYTH prey) (enzyme, UniProt P00330 1-348)
chain: MSIPETQKGVIFYESHGKLEYKDIPVPKPKANELLINVKYSGVCHTDLHAWHGDWPLPVKLPLVGGHEGAGVVVGMGENVKGWKIGDYAGIKWLNGSCMACEYCELGNESNCPHADLSGYTHDGSFQQYATADAVQAAHIPQGTDLAQVAPILCAGITVYKALKSANLMAGHWVAISGAAGGLGSLAVQYAKAMGYRVLGIDGGEGKEELFRSIGGEVFIDFTKEKDIVGAVLKATDGGAHGVINVSVSEAAIEASTRYVRANGTTVLVGMPAGAKCCSDVFNQVVKSISIVGSYVGNRADTREALDFFARGLVKSPIKVVGLSTLPEIYEKMEKGQIVGRYVVDTSK
Consider B9, for which, in experiment [3], the binding entry is recorded as “binds”.

These data come from PMC6830812.
